Test results reported in US20250353875 (published 2025).

Test: general procedure: Fmoc solid-phase peptide synthesis
Settings: late stage modification step

Row | Substance | step yield [%]
1 | Fmoc-Thr (tBu)-MeAla-Cys (StBu)-Phe-Asp (OMe)-pip | 82
2 | Fmoc-Ile-MeGly-Aze (2)-MeCha-MeGly-Asp (OMe)-pip | 83
